Measured data: PubChem BioAssay AID1259308 (NCATS, 2017)
Test: 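Candidate targets for better recombinant protein yield in mammalian cells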 (primary screen). Cell system: human HEK293 embryonic kidney cells stably expressing firefly luciferase (HEK-CMV-Luc2-Hygro). Reagents: single siRNA against human genes, 0.8 pmol siRNA per well. Duration: 72 h. Measurement: 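Luciferase light (ONE-Glo) measured on one replicate plate set and viability (CellTiter-Glo) on the other, scaled to a negative control siRNA, with robust z-scores and luciferase per cell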. Reading the numbers: total luciferase, z-score and total luciferase, % of control: higher = more reporter protein produced; luciferase per cell, z-score: higher = more reporter output per viable cell. Rule for the call: 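Active when the median/MAD z-score for overall luciferase is greater than 3; a gene was taken forward for validation with new siRNAs if at least two of its three siRNAs passed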. Calls: active = raised luciferase; inactive = no rise.
This is one part, drawn at random, of about 59,000 deposited reagents. Of all reagents, about 1,510 (2.6%) were called active. 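Calls use total luciferase alone and ignore viability, so some active siRNAs may act by altering cell number.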 Unmarked entries are inactive. The numbers tell different reagents against one gene apart. Further read-outs or replicates are left out here.

"total luciferase, z-score","total luciferase, % of control","luciferase per cell, z-score",gene knocked down,siRNA no.
2.25,127,1.2,AREL1 (apoptosis resistant E3 ubiquitin protein ligase 1),1
-1.11,59.9,-0.302,AREL1 (apoptosis resistant E3 ubiquitin protein ligase 1),2
-1.5,52,-1.27,AREL1 (apoptosis resistant E3 ubiquitin protein ligase 1),3
1.46,111,2.12,"ERCC1 (ERCC excision repair 1, endonuclease non-catalytic subunit)",1
-0.979,62.4,-1.19,"ERCC1 (ERCC excision repair 1, endonuclease non-catalytic subunit)",2
-1.24,57.2,-0.68,"ERCC1 (ERCC excision repair 1, endonuclease non-catalytic subunit)",3
-1.26,56.8,-1.54,S100A16 (S100 calcium binding protein A16),1
1.12,104,0.935,S100A16 (S100 calcium binding protein A16),2
1.71,116,1.72,S100A16 (S100 calcium binding protein A16),3
0.358,89,0.935,LYNX1 (Ly6/neurotoxin 1),1
0.666,95.1,0.00513,LYNX1 (Ly6/neurotoxin 1),2
0.28,87.5,-0.0195,LYNX1 (Ly6/neurotoxin 1),3
1.66,115,2.04,FAM238C (family with sequence similarity 238 member C),1
-0.0541,80.8,1.26,FAM238C (family with sequence similarity 238 member C),2
-0.152,78.9,0.209,FAM238C (family with sequence similarity 238 member C),3
-0.817,65.6,-1.17,ZNF433 (zinc finger protein 433),1
1.74,117,1.69,ZNF433 (zinc finger protein 433),2
-0.444,73,-0.823,ZNF433 (zinc finger protein 433),3
2.11,124,2.33,MIXL1 (Mix paired-like homeobox),1
-0.706,67.8,-1.02,MIXL1 (Mix paired-like homeobox),2
-0.175,78.4,-0.239,MIXL1 (Mix paired-like homeobox),3
1.81,118,1.69,"ZNF702P (zinc finger protein 702, pseudogene)",1
0.367,89.2,-0.0427,"ZNF702P (zinc finger protein 702, pseudogene)",2
-0.0808,80.3,-0.438,"ZNF702P (zinc finger protein 702, pseudogene)",3
1.34,109,0.022,PDAP1 (PDGFA associated protein 1),1
-0.144,79,-0.637,PDAP1 (PDGFA associated protein 1),2
-1.46,52.8,-2.15,PDAP1 (PDGFA associated protein 1),3
-1.74,47.3,-1.14,OGDH (oxoglutarate dehydrogenase),1
-0.976,62.5,0.693,OGDH (oxoglutarate dehydrogenase),2
-2.51,31.9,-2.36,OGDH (oxoglutarate dehydrogenase),3
-0.435,73.2,-0.593,LEMD2 (LEM domain nuclear envelope protein 2),1
-0.639,69.2,-0.201,LEMD2 (LEM domain nuclear envelope protein 2),2
0.349,88.8,0.597,LEMD2 (LEM domain nuclear envelope protein 2),3
1.03,102,0.583,PDCD10 (programmed cell death 10),1
-0.91,63.8,-0.876,PDCD10 (programmed cell death 10),2
0.202,85.9,0.202,PDCD10 (programmed cell death 10),3
1.86,119,1.55,CCT8 (chaperonin containing TCP1 subunit 8),1
1.66,115,1.46,CCT8 (chaperonin containing TCP1 subunit 8),2
0.879,99.4,0.987,CCT8 (chaperonin containing TCP1 subunit 8),3
-1.57,50.6,-0.167,ACD,1
1.97,121,1.69,ACD,2
-1.84,45.2,-1.82,ACD,3
-0.198,77.9,0.0664,NVL (nuclear VCP like),1
-0.233,77.3,-0.663,NVL (nuclear VCP like),2
0.016,82.2,-0.367,NVL (nuclear VCP like),3
0.185,85.6,0.556,LRRK1 (leucine rich repeat kinase 1),1
-0.596,70,-0.797,LRRK1 (leucine rich repeat kinase 1),2
-0.448,73,-1.29,LRRK1 (leucine rich repeat kinase 1),3
-0.171,78.5,-0.302,SPHK1 (sphingosine kinase 1),1
0.818,98.1,0.462,SPHK1 (sphingosine kinase 1),2
-0.361,74.7,-0.358,SPHK1 (sphingosine kinase 1),3
0.666,95.1,0.818,DERL1 (derlin 1),1
0.212,86.1,-0.262,DERL1 (derlin 1),2
-2.27,36.7,-3.02,DERL1 (derlin 1),3
0.31,88.1,-0.22,LRRTM3 (leucine rich repeat transmembrane neuronal 3),1
-0.899,64,-0.693,LRRTM3 (leucine rich repeat transmembrane neuronal 3),2
-0.474,72.5,-0.918,LRRTM3 (leucine rich repeat transmembrane neuronal 3),3
